PubChem BioAssay AID1159594 – NIAID | 2016
The deposit covers 756 reagents; shown is an unselected part. 130 of all reagents (17%) were called active. 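Active calls cover both falls and rises of reporter activity; each row reflects one siRNA, not a gene-level verdict.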 Reagents against one gene are numbered here. The record does not give: the amount of reagent.

- Test: 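Mapping how TLR pathway genes contribute to TLR2/6 signalling in macrophage-like cells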
- Cell system: human THP-1 B5 reporter cells, PMA-differentiated into macrophage-like cells
- Reagent: single siRNA against human genes
- Time to read-out: 48 to 72 hours after siRNA transfection; ligand exposure 4 hours
- Treatment: Pam2CSK4 (TLR2/6 agonist) stimulation for 4 hours before lysis; dose not given
- Detection: 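Robust z-score, relative to negative controls, of the firefly/renilla ratio from a TNF promoter reporter, after per-plate median/MAD scaling, mean of replicate screens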
- Reading the numbers: TNF reporter z-score: higher = stronger TNF promoter reporter activity
- Rule for the call: 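Active when the mean z-score across replicates is at or beyond ±1.5 in either direction, matching a depositor grade of 50 or higher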
- Meaning of the calls: active = z-score beyond ±1.5 (either direction); inactive = z-score within ±1.5

What is on record for MAPK8 #1?
TNF reporter z-score, replicate mean: -0.0455; Call: inactive

What is on record for MAPK8 #2?
TNF reporter z-score, replicate mean: -0.307; Call: inactive

What is on record for MAPK8 #3?
TNF reporter z-score, replicate mean: -0.569; Call: inactive

How did the screen score MAPK8 #4?
TNF reporter z-score, replicate mean: 0.952; Call: inactive

What is on record for MAPK8 #5?
TNF reporter z-score, replicate mean: -0.433; Call: inactive

Which result is listed for MAPK8 #6?
TNF reporter z-score, replicate mean: 0.642; Call: inactive

What is on record for MAPK11 #1?
TNF reporter z-score, replicate mean: -0.31; Call: inactive

For MAPK11 #2, how do the results read?
TNF reporter z-score, replicate mean: -1.19; Call: inactive

How did the screen score MAPK11 #3?
TNF reporter z-score, replicate mean: -1.17; Call: inactive

With MAPK11 #4, how do the results read?
TNF reporter z-score, replicate mean: -0.247; Call: inactive

With MAPK11 #5, what was measured?
TNF reporter z-score, replicate mean: 1.53; Call: active

For MAPK11 #6, how do the results read?
TNF reporter z-score, replicate mean: -0.479; Call: inactive

For TIRAP #1, how do the results read?
TNF reporter z-score, replicate mean: -3.95; Call: active

What is on record for TIRAP #2?
TNF reporter z-score, replicate mean: -2.53; Call: active

What is on record for TIRAP #3?
TNF reporter z-score, replicate mean: -4.35; Call: active

What is on record for TIRAP #4?
TNF reporter z-score, replicate mean: 0.602; Call: inactive

What did the screen give for TIRAP #5?
TNF reporter z-score, replicate mean: -0.541; Call: inactive

How did the screen score TIRAP #6?
TNF reporter z-score, replicate mean: -4.12; Call: active

Which result is listed for TICAM2 #1?
TNF reporter z-score, replicate mean: -0.202; Call: inactive

For TICAM2 #2, what was measured?
TNF reporter z-score, replicate mean: -0.14; Call: inactive

How did the screen score TICAM2 #3?
TNF reporter z-score, replicate mean: -0.0198; Call: inactive

How did the screen score TICAM2 #4?
TNF reporter z-score, replicate mean: 0.491; Call: inactive

Which result is listed for TICAM2 #5?
TNF reporter z-score, replicate mean: -0.879; Call: inactive

For TICAM2 #6, what was measured?
TNF reporter z-score, replicate mean: -1.06; Call: inactive

What is on record for MAP3K8 #1?
TNF reporter z-score, replicate mean: -1.94; Call: active

For MAP3K8 #2, what was measured?
TNF reporter z-score, replicate mean: -1.99; Call: active

For MAP3K8 #3, what does the deposit list?
TNF reporter z-score, replicate mean: -2.79; Call: active

With MAP3K8 #4, what was measured?
TNF reporter z-score, replicate mean: -1.4; Call: inactive

With MAP3K8 #5, how do the results read?
TNF reporter z-score, replicate mean: -2.25; Call: active

For MAP3K8 #6, how do the results read?
TNF reporter z-score, replicate mean: -1.51; Call: active

With TLR2 #1, what was measured?
TNF reporter z-score, replicate mean: -0.315; Call: inactive

Which result is listed for TLR2 #2?
TNF reporter z-score, replicate mean: -1.35; Call: inactive

What is on record for TLR2 #3?
TNF reporter z-score, replicate mean: -1.87; Call: active

For TLR2 #4, what was measured?
TNF reporter z-score, replicate mean: -0.0396; Call: inactive

For TLR2 #5, what was measured?
TNF reporter z-score, replicate mean: -0.124; Call: inactive

For TLR2 #6, how do the results read?
TNF reporter z-score, replicate mean: -1.13; Call: inactive

Which result is listed for MAP2K1 #1?
TNF reporter z-score, replicate mean: -0.866; Call: inactive

With MAP2K1 #2, what was measured?
TNF reporter z-score, replicate mean: -0.913; Call: inactive

Which result is listed for MAP2K1 #3?
TNF reporter z-score, replicate mean: -0.82; Call: inactive

For MAP2K1 #4, how do the results read?
TNF reporter z-score, replicate mean: -0.447; Call: inactive

With MAP2K1 #5, how do the results read?
TNF reporter z-score, replicate mean: -1.49; Call: inactive

For MAP2K1 #6, how do the results read?
TNF reporter z-score, replicate mean: 0.121; Call: inactive

With MYD88 #1, what does the deposit list?
TNF reporter z-score, replicate mean: -0.877; Call: inactive

How did the screen score MYD88 #2?
TNF reporter z-score, replicate mean: 0.0377; Call: inactive

With MYD88 #3, what was measured?
TNF reporter z-score, replicate mean: -2.16; Call: active

What is on record for MYD88 #4?
TNF reporter z-score, replicate mean: -0.51; Call: inactive

For MYD88 #5, what was measured?
TNF reporter z-score, replicate mean: 1.23; Call: inactive

With MYD88 #6, how do the results read?
TNF reporter z-score, replicate mean: 1.58; Call: active

Laid out differently: 4 of the entries above
{"gene symbol": "TICAM2", "siRNA no.": 4, "TNF reporter z-score, replicate mean": 0.491, "Call": "inactive"}
{"gene symbol": "TICAM2", "siRNA no.": 5, "TNF reporter z-score, replicate mean": -0.879, "Call": "inactive"}
{"gene symbol": "TICAM2", "siRNA no.": 6, "TNF reporter z-score, replicate mean": -1.06, "Call": "inactive"}
{"gene symbol": "MAP3K8", "siRNA no.": 1, "TNF reporter z-score, replicate mean": -1.94, "Call": "active"}
